Data: patent US11427783B2, “Perfuming compositions” (Firmenich SA, priority 2016, dated 2022)

Experiment: Odor threshold of perfuming compounds in air
[1] = Table 6, perfuming compounds having a fruity note
[2] = Table 8, perfuming compounds having a sweet note
[3] = Table 9, perfuming compounds having a gourmand note
[4] = perfuming compounds having a fruity note (Table 6)
[5] = Table 5, perfuming compounds having a green note
[6] = Table 10, perfuming compounds having a woody note

CCCCCCCC1CCC(=O)O1 (racemic) [(+−)-5-heptyldihydro-2(3H)-furanone]
Odor Threshold (μg/l air) [1]: 3.16E−05 μg/l air | Odor Threshold (μg/l air) [2]: 3.16E−05 μg/l air | Odor Threshold (μg/l air) [3]: 3.16E−05 μg/l air

CCCc1ccc(OC)cc1 [1-METHOXY-4-PROPYLBENZENE]
Odor Threshold [4]: 5.37E−04 μg/l air

CC1(C)[C@@H]2CC[C@@]1(C)C(=O)C2
Odor Threshold [4]: 1.72E−01 μg/l air

CC(=O)OC(C)c1ccccc1 (racemic) [(+−)-1-PHENYLETHYL ACETATE]
Odor Threshold [4]: 4.43E−02 μg/l air

COc1cc(C)ccc1O [2-METHOXY-4-METHYLPHENOL]
Odor Threshold (μg/l air) [2]: 6.96E−04 μg/l air

O=C(OCc1ccccc1)c1ccccc1 [BENZYL BENZOATE]
Odor Threshold (μg/l air) [1]: 3.67E−02 μg/l air

O=C1CCCCCCC/C=C/CCCCCCO1 [(10E)-oxacycloheptadec-10-en-2-one]
Odor Threshold (μg/l air) [1]: 4.77E−04 μg/l air

COc1cccc(OC)c1O [2,6-DIMETHOXYPHENOL]
Odor Threshold (μg/l air) [2]: 8.01E−06 μg/l air | Odor Threshold (μg/l air) [3]: 8.01E−06 μg/l air

CC(=O)OCc1ccccc1 [benzyl acetate]
Odor Threshold [4]: 5.24E−03 μg/l air

C/C=C/C(=O)[C@@H]1[C@@H](C)C=CCC1(C)C (racemic)
Odor Threshold (μg/l air) [2]: 1.70E−05 μg/l air | Odor Threshold (μg/l air) [3]: 1.70E−05 μg/l air

CC(C)=CC1CC(C)CCO1 (stereo not shown)
Odor Threshold [5]: 8.77E−04 μg/l air

C/C=C/C(=O)C1C(C)=CCCC1(C)C (racemic)
Odor Threshold [5]: 1.04E−04 μg/l air | Odor Threshold (μg/l air) [1]: 1.04E−04 μg/l air | Odor Threshold (μg/l air) [2]: 1.04E−04 μg/l air | Odor Threshold (μg/l air) [6]: 1.04E−04 μg/l air

CC(=O)OCC=C(C)C [3-methyl-2-buten-1-yl acetate]
Odor Threshold [5]: 5.58E−02 μg/l air | Odor Threshold [4]: 5.58E−02 μg/l air

CC(C)=CCCC(C)C=O (racemic)
Odor Threshold [4]: 2.11E−04 μg/l air

CCCCCCC1CCC(=O)O1 (racemic) [(+−)-4-DECANOLIDE]
Odor Threshold (μg/l air) [1]: 1.61E−04 μg/l air | Odor Threshold (μg/l air) [2]: 1.61E−04 μg/l air | Odor Threshold (μg/l air) [3]: 1.61E−04 μg/l air

CCCC1CCCC(=O)O1 (racemic) [(+−)-6-propyltetrahydro-2H-pyran-2-one]
Odor Threshold (μg/l air) [1]: 2.17E−04 μg/l air

CCOC(=O)C1OC1(C)c1ccccc1 (stereo not shown) [ETHYL 2,3-EPDXY-3-PHENYLBUTANOATE]
Odor Threshold (μg/l air) [1]: 2.28E−05 μg/l air

CC(=O)OC/C=C/c1ccccc1 [(E)-3-PHENYL-2-PROPENYL ACETATE]
Odor Threshold (μg/l air) [1]: 1.87E−04 μg/l air

CCCC(C)COC(=O)C(C)CCC (stereo not shown) [2-METHYLPENTYL 2-METHYLPENTANOATE]
Odor Threshold [5]: 2.41E−01 μg/l air | Odor Threshold [4]: 2.41E−01 μg/l air

CCCCC[C@@H]1OC(=O)C[C@H]1C (racemic) [(+−)-TRANS-3-METHYL-4-NONANOLIDE]
Odor Threshold (μg/l air) [1]: 8.33E−04 μg/l air | Odor Threshold (μg/l air) [2]: 8.33E−04 μg/l air | Odor Threshold (μg/l air) [3]: 8.33E−04 μg/l air

COc1ccc(OC)c(C(C)(C)C)c1 [2-TERT-BUTYL-1,4-DIMETHOXYBENZENE]
Odor Threshold (μg/l air) [6]: 1.65E−02 μg/l air

C[C@@H]1CC[C@H]2C(C)(C)[C@H]3C[C@@]12C[C@@H]1OC(C)(C)O[C@@]13C
Odor Threshold (μg/l air) [6]: 3.90E−06 μg/l air

CCCCCCCC1CCCC(=O)O1 (racemic) [(+−)-6-heptyltetrahydro-2H-pyran-2-one]
Odor Threshold (μg/l air) [1]: 1.27E−04 μg/l air | Odor Threshold (μg/l air) [2]: 1.27E−04 μg/l air | Odor Threshold (μg/l air) [3]: 1.27E−04 μg/l air

C/C=C/C(=O)C1=C(C)CCCC1(C)C
Odor Threshold (μg/l air) [1]: 2.18E−04 μg/l air | Odor Threshold (μg/l air) [6]: 2.18E−04 μg/l air

OCCc1ccccc1 [2-PHENYLETHANOL]
Odor Threshold (μg/l air) [2]: 1.02E−04 μg/l air | Odor Threshold (μg/l air) [3]: 1.02E−04 μg/l air | Odor Threshold [4]: 1.02E−04 μg/l air

CCCCCC1CCCC1=O (racemic) [(+−)-2-pentylcyclopentanone]
Odor Threshold (μg/l air) [2]: 1.28E−03 μg/l air | Odor Threshold (μg/l air) [3]: 1.28E−03 μg/l air | Odor Threshold [4]: 1.28E−03 μg/l air

CCCCCC(=O)OC [METHYL HEXANOATE]
Odor Threshold [5]: 8.43E−02 μg/l air | Odor Threshold [4]: 8.43E−02 μg/l air

COC1(C)CCC23CC1C(C)(C)C2CCC3C (racemic) [(+−)-8-methoxycedrane]
Odor Threshold (μg/l air) [6]: 2.09E−02 μg/l air

O=C1CCC2(CCCCC2)O1 [1-oxaspiro[4.5]decan-2-one]
Odor Threshold (μg/l air) [3]: 2.90E−04 μg/l air

O=C/C=C/c1ccccc1 [(E)-3-PHENYL-2-PROPENAL]
Odor Threshold (μg/l air) [6]: 1.36E−03 μg/l air

CC(C)C(=O)OCCOc1ccccc1 [2-phenoxyethyl 2-methylpropanoate]
Odor Threshold [5]: 3.01E−02 μg/l air | Odor Threshold (μg/l air) [1]: 3.01E−02 μg/l air

CCCCC1CCCC(=O)O1 (stereo not shown) [5-NONANOLIDE]
Odor Threshold (μg/l air) [1]: 1.16E−05 μg/l air | Odor Threshold (μg/l air) [2]: 1.16E−05 μg/l air | Odor Threshold (μg/l air) [3]: 1.16E−05 μg/l air

CC(=O)OC/C=C(/C)CCC=C(C)C [(2Z)-3,7-dimethyl-2,6-octadien-1-yl acetate]
Odor Threshold (μg/l air) [1]: 6.02E−02 μg/l air

CC(CC=O)CC(C)(C)C (racemic) [(+−)-3,5,5-TRIMETHYLHEXANAL]
Odor Threshold [5]: 9.37E−03 μg/l air

8(9)-METHOXY-TRICYCLO[5.2.1.0(2,6)]DECANE-3(4)-CARBALDEHYDE
Odor Threshold (μg/l air) [1]: 4.02E−05 μg/l air

C/C=C/C(=O)C1=C(C)C=CCC1(C)C
Odor Threshold (μg/l air) [6]: 3.00E−06 μg/l air

CC1CCCC2(C)CCCCC12O (racemic)
Odor Threshold [5]: 5.32E−06 μg/l air

CCC/C=C/COC(C)=O [(E)-2-HEXENYL ACETATE]
Odor Threshold [5]: 2.08E−01 μg/l air | Odor Threshold [4]: 2.08E−01 μg/l air

CC(CO)c1ccccc1 (racemic) [(+−)-2-phenyl-1-propanol]
Odor Threshold [5]: 3.62E−02 μg/l air

CC(C)(C)c1ccc2c(c1)OCC(=O)CO2 [7-(2-methyl-2-propanyl)-2H-1,5-benzodioxepin-3(4H)-one]
Odor Threshold [5]: 1.53E−04 μg/l air

Cc1ccc(OC(=O)C(C)C)cc1 [4-METHYLPHENYL ISOBUTYRATE]
Odor Threshold [4]: 1.66E−05 μg/l air

CC/C=C\CCOC(=O)c1ccccc1O [(3Z)-3-hexen-1-yl salicylate]
Odor Threshold [5]: 3.23E−04 μg/l air

CCCC(C)=CCOC(C)=O (mixture of isomers)
Odor Threshold [5]: 2.73E−02 μg/l air | Odor Threshold [4]: 2.73E−02 μg/l air

CC(O)c1ccccc1 (stereo not shown) [1-PHENYL-1-ETHANOL]
Odor Threshold [4]: 2.98E−01 μg/l air

CC(=O)O[C@@H]1CC2CC[C@]1(C)C2(C)C
Odor Threshold (μg/l air) [6]: 4.46E−02 μg/l air

CC(=O)/C=C/C1C(C)=CCCC1(C)C (racemic)
Odor Threshold [5]: 5.30E−04 μg/l air

CC(OC=O)C1CCCC(C)(C)C1 (stereo not shown) [1-(3,3-DIMETHYL-1-CYCLOHEXYL)ETHYL FORMATE]
Odor Threshold [4]: 2.05E−01 μg/l air

C[C@H]1[C@@H]2C[C@H](C[C@@]13C=CC(=O)CC3)C2(C)C
Odor Threshold (μg/l air) [1]: 6.32E−04 μg/l air | Odor Threshold (μg/l air) [6]: 6.32E−04 μg/l air

CC1=CCC(/C=C/C(C)C(C)O)C1(C)C (stereo not shown)
Odor Threshold (μg/l air) [6]: 9.56E−05 μg/l air

CC1=CCC(C(C)(C)O)CC1 (racemic) [(+−)-ALPHA-TERPINEOL]
Odor Threshold (μg/l air) [6]: 1.03E−01 μg/l air

CCCCC1CCC(=O)O1 (racemic) [(+−)-4-OCTANOLIDE]
Odor Threshold (μg/l air) [1]: 2.32E−05 μg/l air | Odor Threshold (μg/l air) [3]: 2.32E−05 μg/l air

CC1(CO)CC1CC1CC2CC2(C)C1(C)C (stereo not shown)
Odor Threshold (μg/l air) [6]: 2.18E−06 μg/l air

CC/C=C\CCOC(=O)C/C=C\CC [(3Z)-3-hexen-1-yl (3Z)-3-hexenoate]
Odor Threshold [5]: 5.17E−02 μg/l air | Odor Threshold (μg/l air) [2]: 5.17E−02 μg/l air | Odor Threshold (μg/l air) [3]: 5.17E−02 μg/l air | Odor Threshold [4]: 5.17E−02 μg/l air

CC(=O)O[C@@H]1CC[C@@H]2C(C)(C)CCC[C@@]2(C)C1 (racemic)
Odor Threshold (μg/l air) [6]: 4.19E−04 μg/l air

3,7-DIMETHYL-2,6-NONADIENENITRILE (A) + 3,7-DIMETHYL-3,6-NONADIENENITRILE (B)
Odor Threshold [5]: 3.10E−04 μg/l air

COc1ccc(COC(C)=O)cc1 [4-METHOXYBENZYL ACETATE]
Odor Threshold (μg/l air) [1]: 9.24E−05 μg/l air

CC(C)(C)Cc1cccnc1 [3-(2,2-DIMETHYLPROPYL)PYRIDINE]
Odor Threshold [4]: 2.82E−03 μg/l air

CC(=O)OCCC1CCCCC1 [2-CYCLOHEXYL ETHYL ACETATE]
Odor Threshold [4]: 4.49E−02 μg/l air

CC(C)CCOCCc1ccccc1 [3-METHYLBUTYL 2-PHENYLETHYL ETHER]
Odor Threshold (μg/l air) [1]: 1.38E−02 μg/l air | Odor Threshold (μg/l air) [2]: 1.38E−02 μg/l air | Odor Threshold (μg/l air) [3]: 1.38E−02 μg/l air

C/C=C/c1ccc(OC(C)=O)c(OC)c1 [(E)-2-METHOXY-4-(1-PROPENYL)PHENYL ACETATE]
Odor Threshold (μg/l air) [1]: 4.08E−07 μg/l air

CC=CC(=O)C(C)CC (stereo not shown) [5-METHYL-2-HEPTEN-4-ONE]
Odor Threshold (μg/l air) [2]: 7.62E−07 μg/l air

C=CCOC(=O)COC1CCCCC1 [ALLYL (CYCLOHEXYLOXY)ACETATE]
Odor Threshold [5]: 4.66E−05 μg/l air | Odor Threshold (μg/l air) [1]: 4.66E−05 μg/l air

CC(=O)OCCC(C)CCC=C(C)C (stereo not shown) [3,7-DIMETHYL-6-OCTENYL ACETATE]
Odor Threshold (μg/l air) [1]: 2.75E−02 μg/l air

C=CCSSCC=C [DIALLYL DISULFIDE]
Odor Threshold (μg/l air) [2]: 3.98E−05 μg/l air | Odor Threshold (μg/l air) [3]: 3.98E−05 μg/l air

CC1=C(O)C(=O)CC1 [2-HYDROXY-3-METHYL-2-CYCLOPENTEN-1-ONE]
Odor Threshold (μg/l air) [2]: 3.82E−04 μg/l air

CCC(=O)O[C@H]1C[C@@H]2CC[C@@]1(C)C2(C)C
Odor Threshold (μg/l air) [6]: 4.55E−02 μg/l air

CCC(=O)OCc1ccccc1 [BENZYL PROPANOATE]
Odor Threshold [5]: 2.81E−02 μg/l air | Odor Threshold (μg/l air) [1]: 2.81E−02 μg/l air

C=CCOC(=O)CCC1CCCCC1 [ALLYL 3-CYCLOHEXYLPROPANOATE]
Odor Threshold [5]: 7.96E−03 μg/l air | Odor Threshold (μg/l air) [1]: 7.96E−03 μg/l air | Odor Threshold (μg/l air) [2]: 7.96E−03 μg/l air | Odor Threshold (μg/l air) [3]: 7.96E−03 μg/l air

CC(=O)OC(CC(C)C)CC(C)C [1-ISOBUTYL-3-METHYLBUTYL ACETATE]
Odor Threshold [5]: 1.62E+00 μg/l air | Odor Threshold [4]: 1.62E+00 μg/l air

Where a name gives a salt, the structure may show the parent alone.
